Plain letter strings leave the end groups untold. Where no end group is shown, it is not given here.
What was measured:
[1] = peptide made by a vendor (peptide synthesis; pre-loaded 2-chlorotrityl chloride resin (0.6 mmol/g); Oxyma/DIC); conditions: whole synthesis, RP-HPLC, scale of the general procedure 0.12 mmol
[2] = general procedure: Fmoc solid-phase peptide synthesis; pre-loaded 2-chlorotrityl chloride resin (0.6 mmol/g); Oxyma/DIC; conditions: whole synthesis, RP-HPLC, scale of the general procedure 0.12 mmol
[3] = one disulfide bridge, sequence written open

Substance	final HPLC purity [1, 3] [%]	final HPLC purity [2, 3] [%]	also measured
VGCARRYCSN	96.3	93.1	–
VGCGRRYCSN	95.3	–	–
VGCARRYC	93.8	–	–
GCARRYCS	93.1	–	–
VGCGRAYCSN	–	95.4	–
VAHQLQALRRG (CgA429-439)	–	–	final HPLC purity [2]: 95.9%
VGCARRYCS	99.4	91.9	–
AGCGRRYCSN	–	96.0	–
VGCARRYCSGGSGGGSGK-bio	95.7	–	–
VGCGARYCSN	–	96.4	–
VGCGRRYCAN	–	95.9	–
VGCGRRACSN	–	95.1	–
GCARRYCSN	93.8	–	–
Ac-VGCARRYCSN (cysteine pairing not given here)	–	–	final HPLC purity [1]: 95.5%
VGAGRRYASN	–	–	final HPLC purity [2]: 96.1%
VACGRRYCSN	–	95.2	–
CSGIGSGGC	–	94.1	–
GCRSNCYRVG	98.1	–	–

Reference: paper PMC10827914 (Cellular and Molecular Life Sciences: CMLS, 2024)
